The list shows only some results of the screen, not a fair sample: it covers a few groups of compounds. Other doses and runs of a compound may be missing. T/C: endpoint of the treated group in % of that of the vehicle group. Some entries give survivors of the animals treated and no T/C: the source files T/C as zero there, which appears to mark a toxic dose or a test without result, not a measured value. Some doses without a T/C left all or most animals alive at the check, yet need not have been tolerated: survival well below the control is almost never listed, so the zero probably covers shortened survival too. Counts of survivors are from the toxicity check (mostly the fifth day) where no day follows; animals may have died later. Schedules are NCI's codes, taken here to give the interval after Q, in days (D) or hours (H), and the number of doses after X. For survival time, the PubChem record calls one and a half times the control and up active, and a quarter to a half above the control has no call in these data; cut-offs in other NCI protocols can differ. Some doses were run more than once; the results are listed from low to high. Some entries show no survivor count and are marked so; the dose need not have been tolerated. Some molecules as drawn cover several salts, stereoisomers or complexes of the source; a dose is that of the sample tested. Some T/C values carry the count of animals alive at the toxicity check (mostly the fifth day); without a count or a note in brackets, all were alive then.
Test system: P388 leukemia ip, CD2F1 mice, survival T/C
Experiment: NCI In Vivo Anticancer Drug Screen. Data for tumor model P388 Leukemia (intraperitoneal) in CD2F1 (CDF1) mice
Conditions: T/C endpoint: median survival time, higher T/C = longer survival
[1] = dose: 12.5 mg/kg/injection, schedule: Q01DX009 (ip), vehicle: saline with Tween-80
[2] = dose: 25.0 mg/kg/injection, schedule: Q01DX009 (ip), vehicle: saline with Tween-80
[3] = dose: 50.0 mg/kg/injection, schedule: Q01DX009 (ip), vehicle: saline with Tween-80
[4] = dose: 50.0 mg/kg/injection, schedule: Q01DX009 (ip), vehicle: saline
[5] = dose: 100.0 mg/kg/injection, schedule: Q01DX009 (ip), vehicle: saline with Tween-80
[6] = dose: 100.0 mg/kg/injection, schedule: Q01DX009 (ip), vehicle: saline
[7] = dose: 100.0 mg/kg/injection, schedule: Q04DX003 (ip), vehicle: Klucel (hydroxypropylcellulose) (HPC)
[8] = dose: 100.0 mg/kg/injection, schedule: Q04DX003 (ip), vehicle: saline
[9] = dose: 200.0 mg/kg/injection, schedule: Q01DX009 (ip), vehicle: saline
[10] = dose: 200.0 mg/kg/injection, schedule: Q04DX003 (ip), vehicle: Klucel (hydroxypropylcellulose) (HPC)
[11] = dose: 200.0 mg/kg/injection, schedule: Q04DX003 (ip), vehicle: saline
[12] = dose: 400.0 mg/kg/injection, schedule: Q04DX003 (ip), vehicle: Klucel (hydroxypropylcellulose) (HPC)
[13] = dose: 400.0 mg/kg/injection, schedule: Q04DX003 (ip), vehicle: saline
[14] = dose: 200.0 mg/kg/injection, schedule: Q01DX009 (ip), vehicle: saline with Tween-80

CC(C)OP(C)(=O)O
T/C [1]: 104 % of control [survivor count not shown]
T/C [2]: 93 % of control [survivor count not shown]
T/C [3]: 86 [survivor count not shown] and 87 % of control [survivor count not shown]
T/C [4]: 95 % of control [survivor count not shown]
T/C (dose: 100.0 mg/kg/injection, schedule: Q01DX001 (ip), vehicle: Klucel (hydroxypropylcellulose) (HPC)): 110 % of control [survivor count not shown]
T/C [5]: 95 [survivor count not shown] and 105 % of control [survivor count not shown]
T/C [6]: 94 % of control [survivor count not shown]
T/C (dose: 100.0 mg/kg/injection, schedule: Q04DX002 (ip), vehicle: saline with Tween-80): 94 % of control [survivor count not shown]
T/C [7]: 91 % of control [survivor count not shown]
T/C [8]: 105 % of control [survivor count not shown]
T/C (dose: 200.0 mg/kg/injection, schedule: Q01DX001 (ip), vehicle: Klucel (hydroxypropylcellulose) (HPC)): 99 % of control [survivor count not shown]
T/C [9]: 98 % of control [survivor count not shown]
T/C (dose: 200.0 mg/kg/injection, schedule: Q04DX002 (ip), vehicle: saline with Tween-80): 104 % of control [survivor count not shown]
T/C [10]: 93 % of control [survivor count not shown]
T/C [11]: 105 % of control [survivor count not shown]
T/C (dose: 400.0 mg/kg/injection, schedule: Q01DX001 (ip), vehicle: Klucel (hydroxypropylcellulose) (HPC)): 95 % of control [survivor count not shown]
T/C (dose: 400.0 mg/kg/injection, schedule: Q01DX009 (ip), vehicle: saline): 104 % of control [survivor count not shown]
T/C (dose: 400.0 mg/kg/injection, schedule: Q04DX002 (ip), vehicle: saline with Tween-80): 97 % of control [survivor count not shown]
T/C [12]: 92 % of control [survivor count not shown]
T/C [13]: 102 % of control [survivor count not shown]

ClCCN(CCCl)c1ccc(CN2CCCCC2)cc1
T/C (dose: 6.25 mg/kg/injection, schedule: Q01DX009 (ip), vehicle: saline with Tween-80): 120 % of control
T/C [1]: 124 % of control
T/C [2]: 133 % of control
T/C [3]: 145 and 161 % of control
survivor count [5]: 0 of 6
survivor count [14]: 0 of 6

CN1C(C)(C)CC(O)(c2ccccc2)CC1(C)C.O=[N+]([O-])c1cc([N+](=O)[O-])c(O)c([N+](=O)[O-])c1
T/C (dose: 60.0 mg/kg/injection, schedule: Q01DX005 (ip), vehicle: saline with Tween-80): 109 % of control
T/C (dose: 120.0 mg/kg/injection, schedule: Q01DX005 (ip), vehicle: saline with Tween-80): 115 % of control [5 of 6 alive]
survivor count (dose: 240.0 mg/kg/injection, schedule: Q01DX005 (ip), vehicle: saline with Tween-80): 0 of 6

C=C1C[C@@]2(C)[C@H](OC(=O)c3ccccc3)C[C@H]1[C@@]21CO1
T/C (dose: 2.0 mg/kg/injection, schedule: Q04DX002 (ip), vehicle: distilled water + Tween-80): 99 % of control
T/C (dose: 4.0 mg/kg/injection, schedule: Q04DX002 (ip), vehicle: distilled water + Tween-80): 100 % of control
T/C (dose: 8.0 mg/kg/injection, schedule: Q04DX002 (ip), vehicle: distilled water + Tween-80): 100 % of control
T/C (dose: 16.0 mg/kg/injection, schedule: Q04DX002 (ip), vehicle: distilled water + Tween-80): 102 % of control
T/C (dose: 32.0 mg/kg/injection, schedule: Q04DX002 (ip), vehicle: distilled water + Tween-80): 100 % of control

O=C(c1ccc(O)cc1O)c1c([N+](=O)[O-])cc([N+](=O)[O-])cc1[N+](=O)[O-]
T/C (dose: 50.0 mg/kg/injection, schedule: Q01DX005 (ip), vehicle: saline with Tween-80): 99 % of control
T/C (dose: 100.0 mg/kg/injection, schedule: Q01DX005 (ip), vehicle: saline with Tween-80): 97 % of control
T/C (dose: 200.0 mg/kg/injection, schedule: Q01DX005 (ip), vehicle: saline with Tween-80): 99 % of control

COP(C)(=O)O.[Eu]
T/C [2]: 96 % of control [survivor count not shown]
T/C [3]: 91 % of control [survivor count not shown]
T/C (dose: 100.0 mg/kg/injection, schedule: Q04DX002 (ip), vehicle: saline): 94 % of control [survivor count not shown]
T/C [14]: 88 % of control [survivor count not shown]
T/C (dose: 200.0 mg/kg/injection, schedule: Q04DX002 (ip), vehicle: saline): 101 % of control [survivor count not shown]
T/C (dose: 400.0 mg/kg/injection, schedule: Q04DX002 (ip), vehicle: saline): 106 % of control [survivor count not shown]

O=C(c1c([N+](=O)[O-])cc([N+](=O)[O-])cc1[N+](=O)[O-])c1c([N+](=O)[O-])cc([N+](=O)[O-])cc1[N+](=O)[O-]
T/C [8]: 108 % of control
T/C [11]: 104 % of control
T/C [13]: 104 % of control

NC(CCc1ccc(N(CCCl)CCCl)cc1)C(=O)O (configuration not stated)
T/C (dose: 0.78 mg/kg/injection, schedule: Q01DX009 (ip), vehicle: Klucel (hydroxypropylcellulose) (HPC)): 161 % of control
T/C (dose: 1.56 mg/kg/injection, schedule: Q01DX009 (ip), vehicle: Klucel (hydroxypropylcellulose) (HPC)): 160 % of control
T/C (dose: 3.13 mg/kg/injection, schedule: Q01DX009 (ip), vehicle: Klucel (hydroxypropylcellulose) (HPC)): 211 % of control [5 of 6 alive]
T/C (dose: 6.25 mg/kg/injection, schedule: Q01DX009 (ip), vehicle: Klucel (hydroxypropylcellulose) (HPC)): 89 and 204 % of control
survivor count (dose: 12.5 mg/kg/injection, schedule: Q01DX009 (ip), vehicle: Klucel (hydroxypropylcellulose) (HPC)): 6 of 6
survivor count (dose: 25.0 mg/kg/injection, schedule: Q01DX009 (ip), vehicle: Klucel (hydroxypropylcellulose) (HPC)): 2 of 6

CN(C)c1ccc(CN2CCCN(Cc3ccc(N(C)C)cc3)P2(=O)Cl)cc1
T/C (dose: 25.0 mg/kg/injection, schedule: Q01DX005 (ip), vehicle: saline): 101 % of control
T/C (dose: 50.0 mg/kg/injection, schedule: Q01DX005 (ip), vehicle: saline): 103 % of control
T/C (dose: 100.0 mg/kg/injection, schedule: Q01DX005 (ip), vehicle: saline): 104 % of control
T/C (dose: 200.0 mg/kg/injection, schedule: Q01DX005 (ip), vehicle: saline): 101 % of control

CCCCNC(=NC)NP(=O)(NCCCC)NCCCC
T/C (dose: 6.25 mg/kg/injection, schedule: Q04DX003 (ip), vehicle: Klucel (hydroxypropylcellulose) (HPC)): 107 % of control
T/C (dose: 12.5 mg/kg/injection, schedule: Q04DX003 (ip), vehicle: Klucel (hydroxypropylcellulose) (HPC)): 97 % of control
T/C (dose: 25.0 mg/kg/injection, schedule: Q04DX003 (ip), vehicle: Klucel (hydroxypropylcellulose) (HPC)): 108 % of control
survivor count [7]: 3 of 6
survivor count [10]: 2 of 6
survivor count [12]: 0 of 6

CC1(C)NC(C)(C)C(Br)C(=O)C1Br (configuration not stated)
T/C [4]: 103 % of control [5 of 6 alive]
survivor count [4]: 5 of 6
survivor count (dose: 50.0 mg/kg/injection, schedule: Q01DX009 (ip), vehicle: suspension in saline): 3 of 6
T/C [6]: 106 [5 of 6 alive] and 110 % of control
T/C (dose: 100.0 mg/kg/injection, schedule: Q01DX009 (ip), vehicle: suspension in saline): 103 % of control
T/C [9]: 102 and 104 % of control
T/C (dose: 200.0 mg/kg/injection, schedule: Q01DX009 (ip), vehicle: suspension in saline): 87 % of control

C[N+](CCCl)(CCCl)Cc1ccccc1
T/C (dose: 6.25 mg/kg/injection, schedule: Q01DX009 (ip), vehicle: alcohol): 90 % of control
T/C (dose: 12.5 mg/kg/injection, schedule: Q01DX009 (ip), vehicle: alcohol): 104 % of control
T/C (dose: 25.0 mg/kg/injection, schedule: Q01DX009 (ip), vehicle: alcohol): 104 % of control

From PubChem BioAssay AID330 (DTP/NCI, 2004)
